Assay results taken from publication PMC11633478.
Results are given in words; binding and its absence hold for the method and conditions named. Binding seen in cells or lysates may run through a third protein. A result given as binding can be weak or reduced; the word gives no strength. Sequences can lack the tags named with a protein.

Experiments:
[1] = biological target: T1, human sterol regulatory element binding protein 1c (Flag-SREBP-1c) (human) (UniProt P36956); experiment: co-IP; HEK 293T cells co-transfected with Flag-SREBP-1c and Myc-GK plasmids, 48 h; cell lysates incubated with antibodies against Myc or Flag overnight at 4 °C, protein A/G magnetic beads 2 h at 4 °C, washed with TBST; Western blot against Myc or Flag
T1 sequence: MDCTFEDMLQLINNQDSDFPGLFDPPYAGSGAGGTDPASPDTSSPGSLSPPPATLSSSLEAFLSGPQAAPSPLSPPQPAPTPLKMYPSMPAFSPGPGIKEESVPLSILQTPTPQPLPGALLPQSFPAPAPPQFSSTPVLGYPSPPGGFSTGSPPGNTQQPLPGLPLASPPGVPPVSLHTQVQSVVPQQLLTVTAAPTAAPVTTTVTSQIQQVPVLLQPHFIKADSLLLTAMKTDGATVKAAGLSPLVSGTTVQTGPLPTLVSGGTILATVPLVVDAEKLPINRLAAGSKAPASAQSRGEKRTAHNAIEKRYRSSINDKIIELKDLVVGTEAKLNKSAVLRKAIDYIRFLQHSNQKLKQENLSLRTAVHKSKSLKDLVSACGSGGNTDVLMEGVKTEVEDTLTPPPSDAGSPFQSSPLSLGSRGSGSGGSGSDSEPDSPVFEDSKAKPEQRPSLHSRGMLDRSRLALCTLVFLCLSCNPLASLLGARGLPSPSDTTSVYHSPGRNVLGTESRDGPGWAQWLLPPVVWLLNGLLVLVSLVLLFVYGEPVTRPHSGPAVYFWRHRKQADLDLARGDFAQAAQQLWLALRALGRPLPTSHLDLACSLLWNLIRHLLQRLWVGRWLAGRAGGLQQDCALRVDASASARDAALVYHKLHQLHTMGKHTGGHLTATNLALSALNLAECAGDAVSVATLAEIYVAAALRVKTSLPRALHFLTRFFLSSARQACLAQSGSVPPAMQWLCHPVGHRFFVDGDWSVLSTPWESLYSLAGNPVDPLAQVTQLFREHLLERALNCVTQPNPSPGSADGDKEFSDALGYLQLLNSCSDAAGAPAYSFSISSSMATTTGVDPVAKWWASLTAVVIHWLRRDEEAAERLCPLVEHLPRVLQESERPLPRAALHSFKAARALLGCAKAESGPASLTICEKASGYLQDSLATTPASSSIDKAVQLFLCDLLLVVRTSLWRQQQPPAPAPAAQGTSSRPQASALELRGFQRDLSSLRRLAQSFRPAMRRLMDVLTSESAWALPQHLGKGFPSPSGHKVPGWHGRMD

[2] = biological target: T1, human sterol regulatory element binding protein 1c (Flag-SREBP-1c) (human); experiment: co-IP; as a1, but on the nuclei of co-transfected HEK 293T cells (Nuclear and Cytoplasmic Protein Extraction Kit)
[3] = biological target: T1, human sterol regulatory element binding protein 1c (Flag-SREBP-1c) (human); experiment: co-IP; as a1, but on the cytoplasm of co-transfected HEK 293T cells (Nuclear and Cytoplasmic Protein Extraction Kit)
[4] = biological target: T2, mouse sterol regulatory element binding protein 1c (Flag-Srebp-1c) (mouse) (UniProt Q9WTN3); experiment: co-IP; HEK 293T cells co-transfected with Flag-SREBP-1c and Myc-GK plasmids, 48 h; cell lysates incubated with antibodies against Myc or Flag overnight at 4 °C, protein A/G magnetic beads 2 h at 4 °C, washed with TBST; Western blot against Myc or Flag
T2 sequence: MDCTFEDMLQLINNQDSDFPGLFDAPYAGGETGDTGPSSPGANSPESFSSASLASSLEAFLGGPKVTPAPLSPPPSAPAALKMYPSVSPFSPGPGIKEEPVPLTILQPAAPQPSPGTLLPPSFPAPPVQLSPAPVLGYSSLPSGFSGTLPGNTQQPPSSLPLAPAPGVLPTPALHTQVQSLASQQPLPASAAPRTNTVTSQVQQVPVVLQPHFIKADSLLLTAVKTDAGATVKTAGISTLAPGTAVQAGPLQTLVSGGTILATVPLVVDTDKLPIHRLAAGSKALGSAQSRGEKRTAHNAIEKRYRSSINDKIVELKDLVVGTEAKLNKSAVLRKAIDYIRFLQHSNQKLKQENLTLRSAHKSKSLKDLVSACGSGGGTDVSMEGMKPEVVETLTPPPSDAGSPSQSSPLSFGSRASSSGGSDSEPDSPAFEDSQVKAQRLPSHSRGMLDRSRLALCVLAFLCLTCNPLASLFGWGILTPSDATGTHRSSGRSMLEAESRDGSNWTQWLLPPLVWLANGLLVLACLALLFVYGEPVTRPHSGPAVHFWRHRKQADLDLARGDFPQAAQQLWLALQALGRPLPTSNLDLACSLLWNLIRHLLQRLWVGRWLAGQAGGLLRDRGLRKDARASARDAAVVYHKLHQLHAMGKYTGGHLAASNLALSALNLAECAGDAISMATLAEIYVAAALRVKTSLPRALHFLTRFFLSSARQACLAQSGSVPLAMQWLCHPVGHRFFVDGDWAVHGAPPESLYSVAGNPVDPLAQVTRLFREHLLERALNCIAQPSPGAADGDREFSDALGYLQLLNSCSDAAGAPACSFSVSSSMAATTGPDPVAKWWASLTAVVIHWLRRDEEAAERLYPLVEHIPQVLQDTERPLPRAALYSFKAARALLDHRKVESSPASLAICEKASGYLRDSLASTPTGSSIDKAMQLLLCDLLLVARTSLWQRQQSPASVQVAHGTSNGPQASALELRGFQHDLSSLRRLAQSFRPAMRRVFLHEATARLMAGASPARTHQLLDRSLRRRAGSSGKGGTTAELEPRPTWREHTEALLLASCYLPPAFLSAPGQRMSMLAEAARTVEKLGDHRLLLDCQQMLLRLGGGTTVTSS

Row | Substance | binding [1] | other results
1 | C-terminal fragment of human GK (amino acids 272-524, GK-C) (domain or fragment) | binds | –
2 | N-terminal fragment of human GK (amino acids 1-271, GK-N) (domain or fragment) | binds | –
3 | full-length human glycerol kinase (Myc-GK) (enzyme) | binds | binding [2]: binds; binding [3]: binds
4 | human GK(C256R) (enzyme) | binds | –
5 | human GK(D198G) (enzyme) | binds | –
6 | human GK(N288D) (enzyme) | binds | –
7 | mouse glycerol kinase (Myc-Gk) (from UniProt Q64516-1) (enzyme) | – | binding [4]: binds
